± gives the standard deviation. The entries are a selection whose mix differs from that of the whole data set. The uncertainty is large for many entries.

These results are taken from the supplement of paper PMC10338343.

The first assay deals with MILI (PIWIL2) piRISC loaded with L1MC piRNA (26 nt). As to the kind of experiment: pre-steady-state target cleavage rate (min^-1); MIWI and MILI are mouse PIWI proteins and EfPiwi is from a freshwater sponge; tags in brackets are library labels; higher = faster piRNA-guided slicing of the target. The settings on record: guide: L1MC piRNA 5'p-UAACUAAAUACUAUGCAAGCUGUAGG; auxiliary factor: 500 nM mouse GTSF1. As for the experimental part: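 Cleave-'n-Seq: a library of target RNAs (target site embedded in constant flanks, ACAGCATTCCGCGTTAGTGATATCCG... 5' flank; DNA-blocked outside the site) at 0.1 nM was incubated with 1 nM active mouse MILI or MIWI piRISC (synthetic 5'-monophosphorylated piRNA guide) with or without 500 nM mouse GTSF1 at 33 °C for 1 min to 16 h. Uncleaved targets were sequenced and normalised to non-target controls, and the pooled three trials were fitted to a burst-and-steady-state model to give the pre-steady-state cleavage rate (min^-1; k3 is constrained to at most 1e-4). Sequence is the target site only; target names encode pairing extent (gX:gY) and contiguous / 1-mismatch / 2-mismatch / bulge geometry. Fits with R² ≤ 0 are excluded.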
For UCCUGCUACAGCCUGCAUAGUAUUUAGUUA, the “pre-steady-state target cleavage rate” value was found to be 0.279 ± 0.025. With UCCUGGAUCAGCUUGCAUAGUUUUUUCAAA, the “pre-steady-state target cleavage rate” value stood at 0.00833 ± 0.0048. UCCUGGAUGUCGUUGCAUAGUAUUGUAGUUA: the “pre-steady-state target cleavage rate” value was found to be 0.00194 ± 0.0088. For UCCUGGAUGUCCUAGCUUAGUAUUUAGUUA, the “pre-steady-state target cleavage rate” value turned out to be 0.0102 ± 0.0041.

For UCCUCCUACAGGAAGCAUAGUAUUUUCAAA, the “pre-steady-state target cleavage rate” value stood at 0.0352 ± 0.012. Same read-out and setting: in the case of UCCUGGAUGUGCUUGCAUAUGUAUUUAGUUA it was 0.00245 ± 0.0054; in that of UCCUGGAUCAGCUUGCAAAGUAUUUUCAAA, 0.00923 ± 0.0045. Turning to UCCUGGAACAGUUUGCAUAGUAUUUAGUUA, the “pre-steady-state target cleavage rate” value was 0.285 ± 0.014.

As for UCCUGGAUGUCGUUGCAUAGUAUAUACUUA, the “pre-steady-state target cleavage rate” value came out at 0.000422 ± 0.016.

Turning to UCCUGCUACAGCUUGCAUAGUAUUUAGAUA, the “pre-steady-state target cleavage rate” value is 0.15 ± 0.029. On the same count and under the same terms, then UCCUCCUACAGCUUGCAAUCUAUUUACAAA, with 0.0157 ± 0.0069; and UCCUCCUACAGCUUGCAAUCUAUUUAGUAA, with 0.0401 ± 0.0094.

Still in this assay, the particulars now being: guide: L1MC piRNA 5'p-UAACUAAAUACUAUGCAAGCUGUAGG; auxiliary factor: none (no GTSF1).
As for UCCUGGAUCAGCUUGCAUACUAUUUAGAUA, the “pre-steady-state target cleavage rate” value amounted to 0.000787 ± 0.0075. The same measure, in the same setting: then UCCUGCUACAGCUUCCAUAGUAUUUUCAAA, with 0.000711 ± 0.0083; and UCCUGCUACAGCCUGCAUAGUAUUUAGUUA, with 0.00704 ± 0.0031. As for UCCUGGAUCAGCUUGCAAUGUAUUUUCAAA, the “pre-steady-state target cleavage rate” value was 0.000559 ± 0.0075.

For the sequence UCCUGCUACAGCUUGCAAAGUAUAUAGUUA, the “pre-steady-state target cleavage rate” value was found to be 0.00266 ± 0.0029.

As for UCCUGGAUGAGCUUCCAUAGUAAUUAGUUA, the “pre-steady-state target cleavage rate” value came to 0.00075 ± 0.0066. On the same count and under the same terms, in the case of UCCUGGAAGUCCUUGCAUAGUAUUUAGUAA it was 0.00214 ± 0.003; in that of UCCUGGAUCAGCUUGCAUAGUUUUUUCAAA, 0.000832 ± 0.006. Consider UCCUGGAACAGCUUGCAUACAAUUUUCAAA, for which the “pre-steady-state target cleavage rate” value was 0.000201 ± 0.014. For UCCUGGAUGUCGUUGCAUAGUAUUGUAGUUA, the “pre-steady-state target cleavage rate” value is 0.00131 ± 0.0076. For UCCUGGAUGUCCUAGCUUAGUAUUUAGUUA, the “pre-steady-state target cleavage rate” value turned out to be 0.00159 ± 0.0037. As to UCCUCCUACAGGAAGCAUAGUAUUUUCAAA, the “pre-steady-state target cleavage rate” value turned out to be 0.000246 ± 0.0096.

With UCCUGGAUGUGCUUGCAUAUGUAUUUAGUUA, the “pre-steady-state target cleavage rate” value turned out to be 0.00121 ± 0.007. UCCUGGAUCAGCUUGCAAAGUAUUUUCAAA: the “pre-steady-state target cleavage rate” value amounted to 0.00088 ± 0.0067.

For the sequence UCCUGCUACAGCUUGCAUAGUAUUUUGAUA, the “pre-steady-state target cleavage rate” value is 0.00109 ± 0.0056.

As to UCCUGGAUGUGCUAGCAUAGUAUUUACUUA, the “pre-steady-state target cleavage rate” value stood at 0.00225 ± 0.0034. Take UCCUGGAUGUCGAACGAUAUUAUUUAGUUA: the “pre-steady-state target cleavage rate” value came to 0.000125 ± 0.024. On the same count and under the same terms, then UCCUGCUACAGCUUGCAUAGAUUUUUCAAA, with 0.00092 ± 0.007; and UCCUGGAACAGCUUGCAUAGAUUUAGUUA, with 0.001 ± 0.006. In the case of UCCUGGUACAGCUUCGAUAGUAUUUAGAAA, the “pre-steady-state target cleavage rate” value came out at 0.00122 ± 0.0053. Still for that read-out and setting: then UCCUGGAACAGCUUGCAUAGUAUUAAGAUA, with 0.00168 ± 0.0038; and UCCUGGAUGUCGUUGCAUAGUAUAUACUUA, with 0.00013 ± 0.042. Consider UCCUGGAUGUCGAAGCUUACUAUUUAGUUA, for which the “pre-steady-state target cleavage rate” value was found to be 0.000235 ± 0.023.

Take UCCUGCUACAGCUUGCAUAGUAUUUAGAUA: the “pre-steady-state target cleavage rate” value amounted to 0.002 ± 0.004.

As for UCCUGGAACAGCAAGCAUAGUAUUUAGAAA, the “pre-steady-state target cleavage rate” value was 0.00152 ± 0.0046.

For UCCUGGAUCAGCUUGCAUAGAUUUUAGUAA, the “pre-steady-state target cleavage rate” value was found to be 0.00189 ± 0.0036. Consider UCCUCCUACAGCUUGCAAUCUAUUUACAAA, for which the “pre-steady-state target cleavage rate” value was found to be 0.000177 ± 0.015.

In the case of UCCUCCUACAGCUUGCAAUCUAUUUAGUAA, the “pre-steady-state target cleavage rate” value was found to be 0.000753 ± 0.0078.
